Measured values published in the supplement of paper PMC10849652.
This is one part of the list.

Amino acid sequences for entries named in this document (tags omitted). A change or cut given only in a name is not applied to a line headed by its entry.
UniProt O75865, whole entry, looked up: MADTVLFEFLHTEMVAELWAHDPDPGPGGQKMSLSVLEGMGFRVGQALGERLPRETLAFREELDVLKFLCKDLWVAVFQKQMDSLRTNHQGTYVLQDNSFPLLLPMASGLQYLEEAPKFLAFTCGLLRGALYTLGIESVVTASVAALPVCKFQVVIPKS
UniProt Q9BRZ2: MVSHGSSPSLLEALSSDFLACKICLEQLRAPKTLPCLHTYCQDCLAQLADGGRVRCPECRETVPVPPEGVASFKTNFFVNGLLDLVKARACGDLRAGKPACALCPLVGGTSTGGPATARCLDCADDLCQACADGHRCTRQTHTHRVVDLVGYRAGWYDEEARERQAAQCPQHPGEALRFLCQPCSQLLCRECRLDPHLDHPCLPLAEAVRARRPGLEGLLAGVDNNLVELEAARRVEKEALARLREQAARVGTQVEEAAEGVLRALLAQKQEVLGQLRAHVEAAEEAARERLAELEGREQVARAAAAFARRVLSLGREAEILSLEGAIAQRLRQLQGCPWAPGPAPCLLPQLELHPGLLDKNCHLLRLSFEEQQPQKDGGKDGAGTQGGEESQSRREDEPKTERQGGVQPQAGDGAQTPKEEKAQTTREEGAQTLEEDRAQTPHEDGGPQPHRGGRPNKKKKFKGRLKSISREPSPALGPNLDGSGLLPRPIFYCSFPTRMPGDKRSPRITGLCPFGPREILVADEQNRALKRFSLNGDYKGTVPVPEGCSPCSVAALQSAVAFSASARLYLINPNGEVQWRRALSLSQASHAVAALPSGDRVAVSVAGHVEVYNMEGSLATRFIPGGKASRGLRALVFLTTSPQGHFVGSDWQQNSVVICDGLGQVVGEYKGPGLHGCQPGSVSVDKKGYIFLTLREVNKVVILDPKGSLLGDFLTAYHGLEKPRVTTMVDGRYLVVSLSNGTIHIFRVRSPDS
UniProt Q15654: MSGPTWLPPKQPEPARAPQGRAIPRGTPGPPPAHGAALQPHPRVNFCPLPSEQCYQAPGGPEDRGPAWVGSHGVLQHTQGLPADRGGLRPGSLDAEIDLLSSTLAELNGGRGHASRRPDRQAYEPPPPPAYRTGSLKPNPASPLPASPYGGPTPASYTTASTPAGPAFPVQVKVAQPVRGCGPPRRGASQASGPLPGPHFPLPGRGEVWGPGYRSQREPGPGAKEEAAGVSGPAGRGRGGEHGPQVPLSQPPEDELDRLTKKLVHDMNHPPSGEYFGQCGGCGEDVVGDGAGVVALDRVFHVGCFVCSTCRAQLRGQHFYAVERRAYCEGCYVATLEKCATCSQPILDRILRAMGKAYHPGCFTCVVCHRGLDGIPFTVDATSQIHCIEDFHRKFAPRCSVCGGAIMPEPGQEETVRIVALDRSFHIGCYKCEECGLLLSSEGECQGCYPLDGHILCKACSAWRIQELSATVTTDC
UniProt Q13630: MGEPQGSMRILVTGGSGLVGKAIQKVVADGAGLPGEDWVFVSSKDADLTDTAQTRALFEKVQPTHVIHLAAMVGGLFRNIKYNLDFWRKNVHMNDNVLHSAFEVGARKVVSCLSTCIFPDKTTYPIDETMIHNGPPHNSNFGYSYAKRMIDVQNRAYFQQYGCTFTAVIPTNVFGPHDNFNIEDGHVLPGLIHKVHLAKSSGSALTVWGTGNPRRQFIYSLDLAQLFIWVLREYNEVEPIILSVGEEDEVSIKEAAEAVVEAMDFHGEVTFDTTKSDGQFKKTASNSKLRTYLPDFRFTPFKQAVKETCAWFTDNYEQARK
UniProt O43617, whole entry, looked up: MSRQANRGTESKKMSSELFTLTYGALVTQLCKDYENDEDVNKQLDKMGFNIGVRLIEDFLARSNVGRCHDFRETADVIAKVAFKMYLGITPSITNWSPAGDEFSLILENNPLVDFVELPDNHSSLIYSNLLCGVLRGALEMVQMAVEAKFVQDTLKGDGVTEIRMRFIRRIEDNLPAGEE
UniProt Q13263: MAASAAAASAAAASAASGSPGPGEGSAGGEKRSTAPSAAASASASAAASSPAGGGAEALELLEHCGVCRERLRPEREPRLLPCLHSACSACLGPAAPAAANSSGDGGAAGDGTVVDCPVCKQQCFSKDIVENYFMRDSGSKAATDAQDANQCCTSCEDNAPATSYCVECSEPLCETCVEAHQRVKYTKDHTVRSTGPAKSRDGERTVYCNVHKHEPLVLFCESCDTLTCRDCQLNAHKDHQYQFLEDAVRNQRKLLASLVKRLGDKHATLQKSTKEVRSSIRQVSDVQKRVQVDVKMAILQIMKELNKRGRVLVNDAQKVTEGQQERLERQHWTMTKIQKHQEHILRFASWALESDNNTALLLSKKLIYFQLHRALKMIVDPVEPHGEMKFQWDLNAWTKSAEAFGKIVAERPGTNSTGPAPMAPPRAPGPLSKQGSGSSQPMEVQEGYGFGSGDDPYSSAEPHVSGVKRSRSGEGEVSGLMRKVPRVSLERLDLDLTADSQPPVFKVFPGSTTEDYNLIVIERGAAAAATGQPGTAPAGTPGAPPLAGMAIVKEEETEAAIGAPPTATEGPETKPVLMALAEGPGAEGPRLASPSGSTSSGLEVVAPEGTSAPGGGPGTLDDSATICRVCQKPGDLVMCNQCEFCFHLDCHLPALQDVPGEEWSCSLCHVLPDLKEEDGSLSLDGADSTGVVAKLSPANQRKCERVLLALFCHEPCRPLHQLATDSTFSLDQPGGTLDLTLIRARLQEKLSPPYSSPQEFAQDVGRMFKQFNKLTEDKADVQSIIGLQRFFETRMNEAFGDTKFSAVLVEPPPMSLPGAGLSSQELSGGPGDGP
UniProt O95857: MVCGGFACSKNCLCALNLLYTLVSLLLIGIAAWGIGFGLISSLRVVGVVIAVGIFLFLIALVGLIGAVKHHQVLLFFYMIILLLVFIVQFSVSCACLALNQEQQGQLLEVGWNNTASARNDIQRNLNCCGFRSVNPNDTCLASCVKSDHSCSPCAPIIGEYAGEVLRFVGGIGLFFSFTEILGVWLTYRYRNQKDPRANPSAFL
UniProt Q6DKK2: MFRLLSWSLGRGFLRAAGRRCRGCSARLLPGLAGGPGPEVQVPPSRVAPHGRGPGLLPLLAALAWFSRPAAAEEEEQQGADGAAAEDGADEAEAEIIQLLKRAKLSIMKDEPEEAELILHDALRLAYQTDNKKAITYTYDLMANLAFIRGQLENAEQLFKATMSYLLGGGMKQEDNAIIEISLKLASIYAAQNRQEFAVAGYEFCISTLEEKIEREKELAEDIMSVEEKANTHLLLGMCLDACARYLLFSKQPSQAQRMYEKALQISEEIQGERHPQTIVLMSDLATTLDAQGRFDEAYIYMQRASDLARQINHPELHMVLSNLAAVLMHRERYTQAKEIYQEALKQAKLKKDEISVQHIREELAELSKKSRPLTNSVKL
UniProt Q9H3H1: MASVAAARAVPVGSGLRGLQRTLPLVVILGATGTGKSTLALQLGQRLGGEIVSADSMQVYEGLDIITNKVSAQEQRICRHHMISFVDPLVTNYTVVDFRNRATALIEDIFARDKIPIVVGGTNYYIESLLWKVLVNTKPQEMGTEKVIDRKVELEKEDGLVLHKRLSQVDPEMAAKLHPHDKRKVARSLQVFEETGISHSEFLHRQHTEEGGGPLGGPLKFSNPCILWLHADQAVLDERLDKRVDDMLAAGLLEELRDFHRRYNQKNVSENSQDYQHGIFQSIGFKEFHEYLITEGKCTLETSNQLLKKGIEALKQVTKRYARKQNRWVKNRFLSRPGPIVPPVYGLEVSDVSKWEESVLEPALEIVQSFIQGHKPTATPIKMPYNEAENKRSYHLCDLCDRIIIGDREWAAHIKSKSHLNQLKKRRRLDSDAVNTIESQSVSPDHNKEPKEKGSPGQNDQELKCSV
UniProt Q5BVD1: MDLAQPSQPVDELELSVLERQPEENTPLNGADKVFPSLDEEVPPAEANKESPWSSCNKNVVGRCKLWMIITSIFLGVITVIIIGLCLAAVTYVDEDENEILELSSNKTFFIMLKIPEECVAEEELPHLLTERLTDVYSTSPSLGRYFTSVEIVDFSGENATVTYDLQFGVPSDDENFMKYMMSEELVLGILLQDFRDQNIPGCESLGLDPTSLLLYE
UniProt P48553, whole entry, looked up: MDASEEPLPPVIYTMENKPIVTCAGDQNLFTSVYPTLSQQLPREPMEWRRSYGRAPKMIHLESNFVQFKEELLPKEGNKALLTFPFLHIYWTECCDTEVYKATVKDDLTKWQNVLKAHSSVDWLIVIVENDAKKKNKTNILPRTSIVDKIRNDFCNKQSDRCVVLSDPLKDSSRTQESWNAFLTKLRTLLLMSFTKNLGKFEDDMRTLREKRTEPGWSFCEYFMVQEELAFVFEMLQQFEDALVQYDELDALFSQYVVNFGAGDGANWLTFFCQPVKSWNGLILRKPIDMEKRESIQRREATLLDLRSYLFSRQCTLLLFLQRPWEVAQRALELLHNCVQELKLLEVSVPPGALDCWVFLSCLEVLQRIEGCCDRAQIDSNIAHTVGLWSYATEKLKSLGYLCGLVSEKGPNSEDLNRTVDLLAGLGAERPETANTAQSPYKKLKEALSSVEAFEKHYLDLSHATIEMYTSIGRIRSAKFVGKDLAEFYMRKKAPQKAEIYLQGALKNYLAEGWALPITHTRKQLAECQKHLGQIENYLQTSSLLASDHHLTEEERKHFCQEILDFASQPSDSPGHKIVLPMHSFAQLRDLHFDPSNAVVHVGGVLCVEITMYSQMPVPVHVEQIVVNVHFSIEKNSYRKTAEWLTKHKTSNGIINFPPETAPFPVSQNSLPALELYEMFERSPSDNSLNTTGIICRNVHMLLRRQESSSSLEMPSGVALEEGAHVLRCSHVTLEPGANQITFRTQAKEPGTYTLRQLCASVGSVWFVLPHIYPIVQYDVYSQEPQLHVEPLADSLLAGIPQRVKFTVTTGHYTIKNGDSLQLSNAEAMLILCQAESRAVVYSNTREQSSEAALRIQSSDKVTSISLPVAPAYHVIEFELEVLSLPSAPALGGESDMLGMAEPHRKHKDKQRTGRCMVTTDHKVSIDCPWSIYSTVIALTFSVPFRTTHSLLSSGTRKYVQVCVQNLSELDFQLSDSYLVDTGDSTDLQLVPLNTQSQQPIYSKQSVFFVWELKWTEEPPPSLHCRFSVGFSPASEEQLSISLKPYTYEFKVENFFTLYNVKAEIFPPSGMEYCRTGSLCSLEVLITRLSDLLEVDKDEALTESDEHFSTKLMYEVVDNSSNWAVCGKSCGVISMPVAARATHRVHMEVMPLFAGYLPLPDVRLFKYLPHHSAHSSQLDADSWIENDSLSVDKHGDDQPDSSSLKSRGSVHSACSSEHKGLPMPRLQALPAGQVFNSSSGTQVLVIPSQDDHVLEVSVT
UniProt Q9Y5S1: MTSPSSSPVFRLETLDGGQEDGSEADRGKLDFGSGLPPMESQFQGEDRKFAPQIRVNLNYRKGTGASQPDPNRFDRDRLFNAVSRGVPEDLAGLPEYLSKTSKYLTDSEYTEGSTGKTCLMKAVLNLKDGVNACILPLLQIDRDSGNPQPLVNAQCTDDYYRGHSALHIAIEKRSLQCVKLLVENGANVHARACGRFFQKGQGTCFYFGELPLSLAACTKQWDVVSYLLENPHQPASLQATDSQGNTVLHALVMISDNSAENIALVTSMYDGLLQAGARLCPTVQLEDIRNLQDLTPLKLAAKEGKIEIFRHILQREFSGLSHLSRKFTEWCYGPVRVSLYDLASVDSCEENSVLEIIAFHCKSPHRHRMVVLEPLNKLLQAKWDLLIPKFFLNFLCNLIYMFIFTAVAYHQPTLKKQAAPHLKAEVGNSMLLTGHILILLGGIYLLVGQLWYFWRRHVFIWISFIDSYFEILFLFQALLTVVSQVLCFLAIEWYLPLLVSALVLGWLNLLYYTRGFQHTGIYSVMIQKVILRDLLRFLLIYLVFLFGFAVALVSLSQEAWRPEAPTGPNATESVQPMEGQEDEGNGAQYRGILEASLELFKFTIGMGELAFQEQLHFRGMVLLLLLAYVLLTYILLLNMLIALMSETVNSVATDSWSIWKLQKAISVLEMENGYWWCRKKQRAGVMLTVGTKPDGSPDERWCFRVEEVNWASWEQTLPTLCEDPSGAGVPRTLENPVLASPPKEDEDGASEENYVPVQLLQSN
UniProt Q9UJK0: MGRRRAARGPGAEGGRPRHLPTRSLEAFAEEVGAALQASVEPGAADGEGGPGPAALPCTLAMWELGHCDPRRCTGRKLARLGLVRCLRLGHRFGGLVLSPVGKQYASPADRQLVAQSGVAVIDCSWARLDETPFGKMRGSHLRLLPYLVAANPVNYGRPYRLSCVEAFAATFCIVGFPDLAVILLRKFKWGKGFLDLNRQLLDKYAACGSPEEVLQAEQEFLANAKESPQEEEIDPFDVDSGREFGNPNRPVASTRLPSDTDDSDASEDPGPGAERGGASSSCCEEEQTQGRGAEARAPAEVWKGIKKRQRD

Assays:
Assay in all cases: log2 fold change, soluble protein after heating vs DMSO (PISA); higher = thermal stabilisation; K562 lysate, 10 uM; active = over 0.2 and 3.5 SD of the protein, either way, in both replicates (recomputed)
alvocidib = compound: CN1CC[C@H](c2c(O)cc(O)c3c(=O)cc(-c4ccccc4Cl)oc23)[C@H](O)C1 [alvocidib]
Outline: (§1)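 Dounce homogenisation of K562 pellets in PBS pH 7.4 with 1 mM MgCl2 produced a crude extract, used at 1 mg/mL protein. Exposure to 10 μM compound lasted 30 min, and aliquots were then heated for 3 min across 48°C-58°C, pooled and brought to 0.5% NP-40 at 4°C. The supernatant after 21,000xg for 90 min was quantified by TMTpro 16plex LC-MS/MS with channel sums equalised. Duplicate values are given as log-two fold change in thermal stability relative to solvent controls.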

Tubastatin A = compound: CN1CCc2c(c3ccccc3n2Cc2ccc(C(=O)NO)cc2)C1 [Tubastatin A]
Outline: as §1

[1] = compound: CNC(=O)C1=CC=CC=C1NC2=NC(=NC=C2Cl)NC3=C(C=C(C=C3)N4CCOCC4)OC
Outline: as §1

defactinib = compound: CNC(=O)c1ccc(Nc2ncc(C(F)(F)F)c(NCc3nccnc3N(C)S(C)(=O)=O)n2)cc1 [defactinib]
Outline: as §1

[2] = compound: CNc1nc(-c2ccc3c(N)n[nH]c3c2)cc(N2C[C@@H](C(=O)NC3CCCCC3)CC[C@H]2C)n1
Outline: as §1

encorafenib = compound: COC(=O)N[C@@H](C)CNc1nccc(-c2cn(C(C)C)nc2-c2cc(Cl)cc(NS(C)(=O)=O)c2F)n1 [encorafenib]
Outline: as §1

[3] = compound: COC(=O)[C@H](CCSC)NC(=O)C1=C(C=C(C=C1)NC[C@H](CS)N)C2=CC=CC=C2
Outline: as §1

alisertib = compound: COc1cc(Nc2ncc3c(n2)-c2ccc(Cl)cc2C(c2c(F)cccc2OC)=NC3)ccc1C(=O)O [alisertib]
Outline: as §1

[4] = compound: COc1cc2nc(-c3cc(F)ccc3O)nc(N[C@@H]3CNC[C@H]3C(C)(C)O)c2cc1OC
Outline: as §1

gefitinib = compound: COc1cc2ncnc(Nc3ccc(F)c(Cl)c3)c2cc1OCCCN1CCOCC1 [gefitinib]
Outline: as §1

lapatinib = compound: CS(=O)(=O)CCNCc1ccc(-c2ccc3ncnc(Nc4ccc(OCc5cccc(F)c5)c(Cl)c4)c3c2)o1 [lapatinib]
Outline: as §1

pictilisib = compound: CS(=O)(=O)N1CCN(Cc2cc3nc(-c4cccc5[nH]ncc45)nc(N4CCOCC4)c3s2)CC1 [pictilisib]
Outline: as §1

crizotinib = compound: C[C@@H](Oc1cc(-c2cnn(C3CCNCC3)c2)cnc1N)c1c(Cl)ccc(F)c1Cl [crizotinib]
Outline: as §1

[5] = compound: C[C@H](C1=CC=C(C=C1)C(=O)NC2=C3C=CNC3=NC=C2)N
Outline: as §1

duvelisib = compound: C[C@H](Nc1ncnc2nc[nH]c12)c1cc2cccc(Cl)c2c(=O)n1-c1ccccc1 [duvelisib]
Outline: as §1

gandotinib = compound: Cc1cc(Nc2cc(CN3CCOCC3)c3nc(C)c(Cc4ccc(Cl)cc4F)n3n2)n[nH]1 [gandotinib]
Outline: as §1

tozasertib = compound: Cc1cc(Nc2cc(N3CCN(C)CC3)nc(Sc3ccc(NC(=O)C4CC4)cc3)n2)n[nH]1 [tozasertib]
Outline: as §1

doramapimod = compound: Cc1ccc(-n2nc(C(C)(C)C)cc2NC(=O)Nc2ccc(OCCN3CCOCC3)c3ccccc23)cc1 [doramapimod]
Outline: as §1

bafetinib = compound: Cc1ccc(NC(=O)c2ccc(CN3CC[C@H](N(C)C)C3)c(C(F)(F)F)c2)cc1Nc1nccc(-c2cncnc2)n1 [bafetinib]
Outline: as §1

[6] = compound: Cc1cccc(CC(=O)N2CCc3c2ccc(-c2cn(C)c4ncnc(N)c24)c3F)n1
Outline: as §1

Measured: log2 fold change

TRAPPC6A isoform 2 (UniProt O75865)
inactive: alvocidib 0.059 | Tubastatin A -0.006 | [1] 0.011 | defactinib -0.026 | [2] -0.017 | encorafenib -0.142 | [3] -0.027 | alisertib -0.052 | [4] 0 | gefitinib -0.043 | lapatinib 0.02 | pictilisib 0.015 | crizotinib 0.001 | [5] -0.146 | duvelisib -0.006 | gandotinib 0.14 | tozasertib -0.039 | doramapimod -0.01 | bafetinib 0.017 | [6] 0.05

TRIM56 (UniProt Q9BRZ2)
inactive: alvocidib -0.013 | Tubastatin A -0.13 | [1] 0.067 | defactinib 0.008 | [2] -0.059 | encorafenib 0.068 | [3] -0.21 | alisertib 0.04 | [4] 0.001 | gefitinib -0.01 | lapatinib 0.001 | pictilisib -0.002 | crizotinib -0.002 | [5] 0.085 | duvelisib 0.003 | gandotinib -0.071 | tozasertib 0 | doramapimod 0.023 | bafetinib -0.132 | [6] 0.085

TRIP6 (UniProt Q15654)
inactive: alvocidib -0.004 | Tubastatin A -0.003 | [1] 0.034 | defactinib -0.019 | [2] 0.076 | encorafenib -0.009 | [3] -0.104 | alisertib 0.005 | [4] -0.014 | gefitinib -0.048 | lapatinib -0.006 | pictilisib 0.01 | crizotinib 0.018 | [5] -0.036 | duvelisib 0.013 | gandotinib 0.041 | tozasertib -0.027 | doramapimod 0.003 | bafetinib -0.034 | [6] -0.007

TSTA3 (UniProt Q13630)
inactive: alvocidib -0.009 | Tubastatin A 0.046 | [1] -0.01 | defactinib -0.001 | [2] 0.047 | encorafenib -0.029 | [3] 0.167 | alisertib 0.014 | [4] 0.008 | gefitinib 0.012 | lapatinib 0.001 | pictilisib -0.007 | crizotinib 0.073 | [5] -0.004 | duvelisib -0.006 | gandotinib 0 | tozasertib -0.003 | doramapimod -0.031 | bafetinib -0.051 | [6] -0.021

TRAPPC3 (UniProt O43617)
inactive: alvocidib 0.028 | Tubastatin A -0.003 | [1] 0.023 | defactinib 0.027 | [2] -0.11 | encorafenib -0.01 | [3] 0.032 | alisertib 0.019 | [4] -0.037 | gefitinib 0.016 | lapatinib -0.007 | pictilisib -0.016 | crizotinib 0.065 | [5] 0.007 | duvelisib 0.002 | gandotinib -0.021 | tozasertib 0.045 | doramapimod -0.032 | bafetinib 0.001 | [6] -0.004

Retrieved one by one from the list above (2):
TRIM56 (UniProt Q9BRZ2)
inactive: alvocidib -0.013 | Tubastatin A -0.13 | [1] 0.067 | defactinib 0.008 | [2] -0.059 | encorafenib 0.068 | [3] -0.21 | alisertib 0.04 | [4] 0.001 | gefitinib -0.01 | lapatinib 0.001 | pictilisib -0.002 | crizotinib -0.002 | [5] 0.085 | duvelisib 0.003 | gandotinib -0.071 | tozasertib 0 | doramapimod 0.023 | bafetinib -0.132 | [6] 0.085

TRIP6 (UniProt Q15654)
inactive: alvocidib -0.004 | Tubastatin A -0.003 | [1] 0.034 | defactinib -0.019 | [2] 0.076 | encorafenib -0.009 | [3] -0.104 | alisertib 0.005 | [4] -0.014 | gefitinib -0.048 | lapatinib -0.006 | pictilisib 0.01 | crizotinib 0.018 | [5] -0.036 | duvelisib 0.013 | gandotinib 0.041 | tozasertib -0.027 | doramapimod 0.003 | bafetinib -0.034 | [6] -0.007

The list goes on.

TRIM28 (UniProt Q13263)
inactive: alvocidib 0.024 | Tubastatin A 0.016 | [1] 0 | defactinib -0.007 | [2] -0.002 | encorafenib -0.011 | [3] 0.009 | alisertib 0 | [4] 0.006 | gefitinib -0.01 | lapatinib -0.016 | pictilisib 0.008 | crizotinib 0.011 | [5] 0.008 | duvelisib -0.012 | gandotinib -0.006 | tozasertib -0.01 | doramapimod -0.008 | bafetinib 0.003 | [6] -0.017

TSPAN13 (UniProt O95857)
active: [5] -0.387
inactive: alvocidib -0.26 | Tubastatin A 0.046 | [1] -0.042 | defactinib 0.017 | [2] 0.299 | encorafenib -0.007 | [3] 0.049 | alisertib 0.003 | [4] 0.043 | gefitinib -0.003 | lapatinib 0.017 | pictilisib 0.015 | crizotinib 0.011 | duvelisib -0.241 | gandotinib 0.32 | tozasertib -0.207 | doramapimod 0.119 | bafetinib 0.038 | [6] 0.055

TTC19 (UniProt Q6DKK2)
inactive: alvocidib -0.014 | Tubastatin A -0.024 | [1] -0.009 | defactinib -0.088 | [2] -0.046 | encorafenib 0.006 | [3] 0.049 | alisertib -0.035 | [4] -0.052 | gefitinib 0.025 | lapatinib -0.003 | pictilisib 0.006 | crizotinib -0.063 | [5] -0.072 | duvelisib -0.028 | gandotinib 0.006 | tozasertib -0.034 | doramapimod 0.031 | bafetinib -0.038 | [6] 0.066

TTC27 (UniProt Q6P3X3)
inactive: alvocidib 0.012 | Tubastatin A -0.148 | [1] -0.049 | defactinib 0.023 | [2] -0.007 | encorafenib 0.028 | [3] 0.057 | alisertib 0.027 | [4] 0.012 | gefitinib 0.02 | lapatinib -0.01 | pictilisib 0.005 | crizotinib -0.041 | [5] -0.033 | duvelisib 0.04 | gandotinib -0.129 | tozasertib 0.004 | doramapimod 0.048 | bafetinib -0.066 | [6] 0.04

TRIT1 (UniProt Q9H3H1)
inactive: alvocidib 0.043 | Tubastatin A -0.066 | [1] 0.035 | defactinib -0.007 | [2] -0.024 | encorafenib 0.003 | [3] 0.034 | alisertib -0.074 | [4] 0.026 | gefitinib 0.05 | lapatinib -0.053 | pictilisib 0.007 | crizotinib -0.009 | [5] -0.009 | duvelisib 0.017 | gandotinib -0.176 | tozasertib -0.003 | doramapimod 0.025 | bafetinib 0.091 | [6] -0.005

TTMP isoform 3 (UniProt Q5BVD1)
inactive: alvocidib -0.347 | Tubastatin A 0.24 | [1] -0.105 | defactinib -0.088 | [2] 0.36 | encorafenib -0.06 | [3] 0.06 | alisertib 0.119 | [4] 0.129 | gefitinib 0.02 | lapatinib -0.1 | pictilisib 0.013 | crizotinib -0.241 | duvelisib 0.138 | gandotinib 0.384 | tozasertib -0.022 | doramapimod 0.137 | bafetinib -0.197 | [6] 0.47
active: [5] -0.618

TTF2 (UniProt Q9UNY4)
inactive: alvocidib -0.018 | Tubastatin A -0.055 | [1] 0.05 | defactinib 0.069 | [2] 0.005 | encorafenib -0.018 | [3] -0.01 | alisertib 0.005 | [4] 0.056 | gefitinib 0.002 | lapatinib 0.028 | pictilisib -0.048 | crizotinib -0.104 | [5] -0.052 | duvelisib 0 | gandotinib 0 | tozasertib 0.019 | doramapimod 0.053 | bafetinib -0.02 | [6] 0.102

TRAPPC10 (UniProt P48553)
inactive: alvocidib -0.034 | Tubastatin A -0.074 | [1] 0.01 | defactinib -0.034 | [2] 0.011 | encorafenib 0.009 | [3] -0.047 | alisertib 0.015 | [4] -0.001 | gefitinib -0.029 | lapatinib 0 | pictilisib 0 | crizotinib -0.034 | [5] -0.101 | duvelisib -0.016 | gandotinib 0.022 | tozasertib -0.01 | doramapimod -0.027 | bafetinib -0.007 | [6] 0.074

TRPV2 (UniProt Q9Y5S1)
inactive: alvocidib -0.075 | Tubastatin A 0.042 | [1] 0.014 | defactinib 0.014 | [2] 0.033 | encorafenib 0.005 | [3] -0.018 | alisertib -0.031 | [4] 0.013 | gefitinib -0.053 | lapatinib -0.015 | pictilisib -0.013 | crizotinib 0.016 | [5] -0.105 | duvelisib 0.013 | gandotinib 0.06 | tozasertib -0.026 | doramapimod 0.015 | bafetinib -0.03 | [6] 0.051

TRIP10 isoform 2 (UniProt Q15642)
inactive: alvocidib -0.148 | Tubastatin A -0.056 | [1] 0.081 | defactinib 0.003 | [2] 0.017 | encorafenib 0.15 | [3] -0.017 | alisertib 0.101 | [4] -0.036 | gefitinib -0.132 | lapatinib 0.015 | pictilisib 0.074 | crizotinib 0.114 | [5] -0.029 | duvelisib -0.015 | gandotinib 0.093 | tozasertib -0.01 | doramapimod -0.054 | bafetinib 0.04 | [6] 0.096

TSR3 (UniProt Q9UJK0)
inactive: alvocidib -0.016 | Tubastatin A 0.042 | [1] 0.013 | defactinib 0.006 | [2] 0.103 | encorafenib 0.005 | [3] -0.186 | alisertib -0.005 | [4] 0.01 | gefitinib -0.046 | lapatinib 0.007 | pictilisib 0.015 | crizotinib -0.068 | [5] -0.011 | duvelisib 0.045 | gandotinib 0.058 | tozasertib -0.013 | doramapimod 0.011 | bafetinib -0.067 | [6] 0.003
